Results reported in patent publication US12378320B2, “Methods for treating pancreatitis” (Cold Spring Harbor Laboratory, priority 2018, dated 2025).

Test system: CA19-9 modified proteins
Assay: CA19-9 IP/MS (iTRAQ) of organoid conditioned media after Dox treatment
Parameters: species or system mouse
Details: CA19-9 IP/MS relative abundance; for 17 0H NS19 / 17 8H 5B1 / 17 8H NS19: A217 (genetic negative) organoid conditioned media; for 17 0H NS19 / 20 0H 5B1: 0H (before treatment); for 17 0H NS19 / 17 8H NS19: IP with NS19-9; for 17 0H NS19: reference channel = 1; for 17 8H 5B1 / 17 8H NS19: after 8 hours; for 17 8H 5B1 / 20 0H 5B1: IP with 5B1; for 20 0H 5B1: A220 (C;R^LSL;F) organoid conditioned media

B1: Q00897 (protein, UniProt Q00897 1-413, looked up)
chain: MTPSISWSLLLLAGLCCLVPSFLAEDVQETDTSQKDQSPASHEIATNLGDFALRLYRELVHQSNTSNIFFSPVSIATAFAMLSLGSKGDTHTQILEGLQFNLTQTSEADIHKSFQHLLQTLNRPDSELQLSTGNGLFVNNDLKLVEKFLEEAKNHYQAEVFSVNFAESEEAKKVINDFVEKGTQGKIVEAVKKLDQDTVFALANYILFKGKWKQPFDPENTEEAEFHVDESTTVKVPMMTLSGMLDVHHCSMLSSWVLLMDYAGNTTAVFLLPDDGKMQHLEQTLNKELISQFLLNRRRSDAQIHIPRLSISGNYNLKTLMSPLGITRIFNNGADLSGITEENAPLKLSKAVHKAVLTIDETGTEAAAATVLQVATYSMPPIVRFDHPFLFIIFEEHTQSPIFVGKVVDPTHK
modifications: full-length
17 0H NS19: 1 | 17 8H 5B1: 0.397 | 17 8H NS19: 1.015 | 20 0H 5B1: 0.282

B2: P01637 (protein, UniProt P01637 1-128, looked up)
chain: MRTPAQFLGILLLWFPGIKCDIKMTQSPSSMYASLGERVTISCKASQDINSYLTWFQQKPGKSPKTLLYRANRLVDGVPSRFSGSGSGQDFSLTISSLEYEDMGIYYCLQYDEFPLTFGAGTKLELKR
modifications: full-length
17 0H NS19: 1 | 17 8H 5B1: 0.158 | 17 8H NS19: 0.661 | 20 0H 5B1: 0.133

B3: P01670 (protein, UniProt P01670 1-111, looked up)
chain: DIVLTQSPASLAVSLGQRATISCRASKSVSTSGYSYMHWYQQKPGQPPKLLIYLASNLESGVPARFSGSGSGTDFTLNIHPVEEEDAATYYCQHSRELPRTFGGGTKLEIK
modifications: full-length
17 0H NS19: 1 | 17 8H 5B1: 0.095 | 17 8H NS19: 1.113 | 20 0H 5B1: 0.066

B4: P01659 (protein, UniProt P01659 1-112, looked up)
chain: DIVLTQSPASLAVSLGQRATISCRASZSVNWYGNSFMZWYZZKPGZPPKLLIYRASNLZSGIPARFSGSGSRTBFTLTIBPVZABDVATYFCZZSBZAPWTFGSGTKLEIKR
modifications: full-length
17 0H NS19: 1 | 17 8H 5B1: 0.746 | 17 8H NS19: 0.711 | 20 0H 5B1: 0.652

B5: P01644 (protein, UniProt P01644 1-108, looked up)
chain: DIQMTQTTSSLSASLGDRVTISCRASQDISNYLNWYQQKPDGTVKLLIYYTSRLHSGVPSRFSGSGSGTDYSLTISNLEQEDIATYFCQQGNSLPRTFGGGTKLEIKR
modifications: full-length
17 0H NS19: 1 | 17 8H 5B1: 0.072 | 17 8H NS19: 1.128 | 20 0H 5B1: 0.045

B6: O35490 (protein, UniProt O35490 1-407, looked up)
chain: MAPVAGKKAKKGILERLNAGEVVIGDGGFVFALEKRGYVKAGPWTPEAAVEHPEAVRQLHREFLRAGSNVMQTFTFYASEDKLENRGNYVAEKISGQKVNEAACDIARQVADEGDALVAGGVSQTPSYLSCKSEVEVKKIFRQQLEVFMKKNVDFLIAEYFEHVEEAVWAVEALKASGKPVAATMCIGPEGDLHGVPPGECAVRLVKAGASIVGVNCHFDPSVSLQTVKLMKEGLEAARLKAYLMSQPLAYHTPDCGKQGFIDLPEFPFGLEPRVATRWDIQKYAREAYNLGVRYIGGCCGFEPYHIRAIAEELAPERGFLPPASEKHGSWGSGLDMHTKPWIRARARKEYWQNLRIASGRPYNPSMSRPDAWGVTKGAAELMQQKEATTEQQLRELFEKQKFKSAQ
modifications: full-length
17 0H NS19: 1 | 17 8H 5B1: 4.685 | 17 8H NS19: 0.438 | 20 0H 5B1: 4.172

B7: P24270 (protein, UniProt P24270 1-527, looked up)
chain: MSDSRDPASDQMKQWKEQRASQRPDVLTTGGGNPIGDKLNIMTAGSRGPLLVQDVVFTDEMAHFDRERIPERVVHAKGAGAFGYFEVTHDITRYSKAKVFEHIGKRTPIAVRFSTVTGESGSADTVRDPRGFAVKFYTEDGNWDLVGNNTPIFFIRDAILFPSFIHSQKRNPQTHLKDPDMVWDFWSLRPESLHQVSFLFSDRGIPDGHRHMNGYGSHTFKLVNADGEAVYCKFHYKTDQGIKNLPVGEAGRLAQEDPDYGLRDLFNAIANGNYPSWTFYIQVMTFKEAETFPFNPFDLTKVWPHKDYPLIPVGKLVLNKNPVNYFAEVEQMAFDPSNMPPGIEPSPDKMLQGRLFAYPDTHRHRLGPNYLQIPVNCPYRARVANYQRDGPMCMHDNQGGAPNYYPNSFSAPEQQRSALEHSVQCAVDVKRFNSANEDNVTQVRTFYTKVLNEEERKRLCENIAGHLKDAQLFIQKKAVKNFTDVHPDYGARIQALLDKYNAEKPKNAIHTYTQAGSHMAAKGKANL
modifications: full-length
17 0H NS19: 1 | 17 8H 5B1: 3.427 | 17 8H NS19: 0.606 | 20 0H 5B1: 3.106

B8: Q06890 (protein, UniProt Q06890 1-448, looked up)
chain: MKILLLCVALLLIWDNGMVLGEQEVSDNELQELSTQGSRYINKEIQNAVQGVKHIKTLIEKTNAERKSLLNSLEEAKKKKEDALEDTRDSEMKLKAFPEVCNETMMALWEECKPCLKHTCMKFYARVCRSGSGLVGQQLEEFLNQSSPFYFWMNGDRIDSLLESDRQQSQVLDAMQDSFARASGIIDTLFQDRFFARELHDPHYFSPIGFPHKRPHFLYPKSRLVRSLMSPSHYGPPSFHNMFQPFFEMIHQAQQAMDVQLHSPAFQFPDVDFLREGEDDRTVCKEIRRNSTGCLKMKGQCEKCQEILSVDCSTNNPAQANLRQELNDSLQVAERLTEQYKELLQSFQSKMLNTSSLLEQLNDQFNWVSQLANLTQGEDKYYLRVSTVTTHSSDSEVPSRVTEVVVKLFDSDPITVVLPEEVSKDNPKFMDTVAEKALQEYRRKSRAE
modifications: full-length
17 0H NS19: 1 | 17 8H 5B1: 3.943 | 17 8H NS19: 1.306 | 20 0H 5B1: 1.709

B9: P17182 (protein, UniProt P17182 1-434, looked up)
chain: MSILRIHAREIFDSRGNPTVEVDLYTAKGLFRAAVPSGASTGIYEALELRDNDKTRFMGKGVSQAVEHINKTIAPALVSKKVNVVEQEKIDKLMIEMDGTENKSKFGANAILGVSLAVCKAGAVEKGVPLYRHIADLAGNPEVILPVPAFNVINGGSHAGNKLAMQEFMILPVGASSFREAMRIGAEVYHNLKNVIKEKYGKDATNVGDEGGFAPNILENKEALELLKTAIAKAGYTDQVVIGMDVAASEFYRSGKYDLDFKSPDDPSRYITPDQLADLYKSFVQNYPVVSIEDPFDQDDWGAWQKFTASAGIQVVGDDLTVTNPKRIAKAASEKSCNCLLLKVNQIGSVTESLQACKLAQSNGWGVMVSHRSGETEDTFIADLVVGLCTGQIKTGAPCRSERLAKYNQILRIEEELGSKAKFAGRSFRNPLAK
modifications: full-length
17 0H NS19: 1 | 17 8H 5B1: 2.195 | 17 8H NS19: 0.499 | 20 0H 5B1: 1.789

B10: Q8BSL7 (protein, UniProt Q8BSL7 1-181, looked up)
chain: MGNVFEKLFKSLFGKKEMRILMVGLDAAGKTTILYKLKLGEIVTTIPTIGFNVETVEYKNISFTVWDVGGQDKIRPLWRHYFQNTQGLIFVVDSNDRERVNEAREELTRMLAEDELRDAVLLVFVNKQDLPNAMNAAEITDKLGLHSLRQRNWYIQATCATSGDGLYEGLDWLSNQLKNQK
modifications: full-length
17 0H NS19: 1 | 17 8H 5B1: 1.57 | 17 8H NS19: 0.495 | 20 0H 5B1: 1.376

B11: P05784 (protein, UniProt P05784 1-423, looked up)
chain: MSFTTRSTTFSTNYRSLGSVRTPSQRVRPASSAASVYAGAGGSGSRISVSRSVWGGSVGSAGLAGMGGIQTEKETMQDLNDRLASYLDKVKSLETENRRLESKIREHLEKKGPQGVRDWGHYFKIIEDLRAQIFANSVDNARIVLQIDNARLAADDFRVKYETELAMRQSVESDIHGLRKVVDDTNITRLQLETEIEALKEELLFMKKNHEEEVQGLEAQIASSGLTVEVDAPKSQDLSKIMADIRAQYEALAQKNREELDKYWSQQIEESTTVVTTKSAEIRDAETTLTELRRTLQTLEIDLDSMKNQNINLENSLGDVEARYKAQMEQLNGVLLHLESELAQTRAEGQRQAQEYEALLNIKVKLEAEIATYRRLLEDGEDFSLNDALDSSNSMQTVQKTTTRKIVDGRVVSETNDTRVLRH
modifications: full-length
17 0H NS19: 1 | 17 8H 5B1: 2.148 | 17 8H NS19: 0.888 | 20 0H 5B1: 1.589
